The labels stand for the following.
B1: il10ra_site1_normal_mot_HHH_b2_03328_af2_000000127_0001_1_19_H_._HHH_b2_01231_0001_0000300042_0000002_0 (protein)
chain: SSSSNEESEEVYRLSRKALELLANGNPEEAEKVVERALEIAEENNNFALAFAAELALRAIGSSSS
B2: il10ra_site1_normal_mot_HHH_b1_07768_000000240_0001_18_35_H_._HHH_b2_05766_0001_0000100021_0000001_0 (protein)
chain: SSSSDRTLRFVVEFVLRVAEESAKEDPERARHQLERLAEHLKQADDEELLEEVERLLEEIGSSSS
B3: il10ra_site1_normal_mot_HHH_b2_03220_af2_000000223_0001_23_40_H_._HHH_b1_07482_0001_0000300031_0000001_0 (protein)
chain: SSSSSEEAEEVWELLRRALEIREKDPEEARELVEEAEEIAKEANNENLEFVIRFLLRDINSSSSS
B4: il10ra_site1_sap_26_mot_HHH_b2_07521_000000141_0001_20_37_H_._HHH_b2_01251_af2_0001_0000600023_0000001_0_0001 (protein)
chain: SSSDQESYEIAKRAIEEALELAKNGNPEEARRVLEEAIEELEELGNRLTVLQLRSLLELEKSSSS
B5: il10ra_site1_normal_mot_HHH_b1_06994_000000193_0001_40_55_H_._HHH_b1_08244_0001_0000300057_0000002_0 (protein)
chain: SSSSDELEELIKAALRLIRQALEHGDPRTARFLLLAAKIRIEELGDEELEEELRELEEEVESSSS
B6: il10ra_site1_normal_mot_HHH_b1_05609_af2_000000134_0001_1_18_H_._HHH_b2_04330_af2_0001_0000300024_0000001_0 (protein)
chain: SSSSSDNEQALRLSVEAFRLALRGNPEEARELLEEALELAEEANNERLFRQIEELLKAQHSSSSS
B7: il10ra_site1_normal_mot_HHH_b1_02062_000000185_0001_1_20_H_._HHH_b1_03085_0001_0000200006_0000002_0 (protein)
chain: SSSSSEREAYELSREAAEADSEGNPEEAREIAEEALELAEEAGNEVIAFTIRFLLKIIRENSSSS
B8: il10ra_site1_sap_27_mot_9c3e5e2d2b9ffb70dc788f52fbfab6d5_0001_1_000000198_0001_1_14_H_._HHH_b1_00765_0001_0000900024_0000001_0_0001 (protein)
chain: SSSSNEEYEEFKELVRLVVQLRRNGNPEEAKEVLKELEKLAEEANNWALRFVVELLERDLSSSSS
B9: il10ra_site1_sap_9_mot_HHH_b1_01307_000000115_0001_1_18_H_._HHH_b1_07449_0001_0000600036_0000001_0_0001 (protein)
chain: SSSSDEEIREEVEELLEEARRISNAQEVYELLKRAIELAAELNDPELFKLIHRVLREWQRSSSSS
B10: il10ra_site1_normal_mot_HHH_b2_03801_000000188_0001_20_36_H_._HHH_b1_08533_0001_0000100001_0000002_0 (protein)
chain: SSSSSSDVAERAVRRLLHAARQVDDEEYVRLTLRFAKALAEDANDPELEEEVERVERELSSSSSS
B11: il10ra_site1_sap_14_mot_HHH_b2_05453_000000140_0001_43_57_H_._HHH_b2_06766_0001_0000500030_0000001_0_0001 (protein)
chain: SSSSDERMQEVQELIRRIAELHSEGNPEEAQRIIEEAKEIAEELGNDVLLWVIEYLERTLSSSSS
B12: il10ra_site1_normal_mot_HHH_eva_0540_af2_000000105_0001_1_16_H_._HHH_b2_07130_af2_0001_0000100004_0000001_0 (protein)
chain: SSSSDETEEVFELIEKAAKLLNDGNPEEAEKVLEEAREIAEKLGNDIFRWQIEFLEELIKKSSSS
B13: il10ra_site1_normal_mot_HHH_b1_05326_000000242_0001_1_20_H_._HHH_b1_06531_af2_0001_0000200003_0000001_0 (protein)
chain: SSSSSDEQQEVLKLLREVFRLLLRGNPEEAKKLVEEAREIAEEGNDPALEKAVKIAEEAASSSSS
B14: il10ra_site1_normal_mot_HHH_b2_00943_af2_000000149_0001_1_17_H_._HHH_b2_02724_af2_0001_0000600020_0000001_0 (protein)
chain: SSSSSEEFEELVEEAQRLAKELGDENVLFLIRQLEKAYRRAGDEWAAEILENLLKELEELGSSSS
B15: il10ra_site1_sap_18_mot_HHH_b1_03094_000000294_0001_1_20_H_._HHH_b2_02427_0001_0000500047_0000001_0_0001 (protein)
chain: SSSSSDTDEAVRRVKELLRRAMHVSEEEREELLREAEELAKEANNELLEWQVKFVARLLNSSSSS
B16: il10ra_site1_normal_mot_HHH_b2_07569_000000265_0001_38_56_H_._HHH_b1_06669_0001_0000300031_0000002_0 (protein)
chain: SSSSELEERIRELLEKLEELVEEGDVREASELALEIVQLIFELGDEELVQEVWELAKLAFENSSS
B17: il10ra_site1_normal_mot_HHH_b2_02053_af2_000000006_0001_3_19_H_._HHH_b2_04663_0001_0000200030_0000002_0_af2pred_0001 (protein)
chain: SSSSDEAQEVLELIRKALELLNNGNPEEAKEVLEEALRLAEEGNNPILRHIIEFLEEQVESSSSS
B18: il10ra_site1_normal_mot_3af0db62db2b275566dae2e03bf881fa_0001_000000003_0001_37_50_H_._HHH_b2_06527_0001_0000300018_0000001_0_af2pred_0001 (protein)
chain: SSSSSSDLEQQVRAAIWFAKNIHNPTVRRKALEFALKIAEEINNEELVEEIRELLEQVNSSSSSS
B19: il10ra_site1_sap_23_mot_HHH_b1_00992_000000182_0001_23_40_H_._HHH_b1_08664_0001_0000300022_0000001_0_0001 (protein)
chain: SSSSSDEELRRRVEELLEELEELTDPQERYRVLKEAIELAVEGRDPELLRLIMEVLRRLFSSSSS

The list shows a part of the results.

The target in the assay is il10ra, Q13651. Briefly: yeast display titration.
Take B1: the “apparent Kd” value was “inactive: no binding seen”. On to B2, for which the “apparent Kd” value was “inactive: no binding seen”. For the molecule B3, the “apparent Kd” value is “inactive: no binding seen”. B4: the “apparent Kd” value is “inactive: no binding seen”. With B5 the entry was “inactive: no binding seen”. As for B6, the “apparent Kd” value is “inactive: no binding seen”. Turning to B7, the “apparent Kd” value was “inactive: no binding seen”.

For the molecule B8, the “apparent Kd” value was “inactive: no binding seen”. Take B9: the “apparent Kd” value is “inactive: no binding seen”. B10: the “apparent Kd” value was “inactive: no binding seen”.

With B11, the “apparent Kd” value was “inactive: no binding seen”. For the molecule B12, the “apparent Kd” value was “inactive: no binding seen”.

For the molecule B13, the “apparent Kd” value is “inactive: no binding seen”. As for B14, the “apparent Kd” value was “inactive: no binding seen”. In the case of B15, the “apparent Kd” value is “inactive: no binding seen”. With B16 the entry was “inactive: no binding seen”; with B17, “inactive: no binding seen”; with B18, “inactive: no binding seen”.

Turning to B19, the “apparent Kd” value is “inactive: no binding seen”.
